Assay results reported in the supplement of paper PMC5355238.
Structures can show the parent of a compound that is named as a salt. The list shows a part of the results. Most entries show no effect beyond the scatter of the controls.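 Reh is a human leukemia cell line; the read-out is the median γH2AX antibody signal in S-phase cells by flow cytometry, with the score counting standard deviations from the median difference of each paired set of plates. Scores above 2.5 were called candidate hits, while scores below -2 mark compounds that lowered the MK1775-induced damage.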

Tested on: Reh
Test: Z' of S-phase gammaH2AX difference (drug + MK1775 minus drug alone) (Z-score); higher = stronger synergistic S-phase DNA damage with MK1775
Conditions: MK1775 concentration 400 nM; first compound 10 µM; 4 h

Question: Which “Z' of S-phase gammaH2AX difference (Z-score)” value does the source give for `Cl.N[C@@H](CCC(=O)O)C(=O)O` [L-Glutamic acid hydrochloride] + C=CCn1c(=O)c2cnc(Nc3ccc(N4CCN(C)CC4)cc3)nc2n1-c1cccc(C(C)(C)O)n1 [MK1775] here?
Answer: Its value is inactive: -0.00729.

Question: With `Cc1nc(-c2ccc(OCC(C)C)c(C#N)c2)sc1C(=O)O` [Febuxostat (Uloric)] + C=CCn1c(=O)c2cnc(Nc3ccc(N4CCN(C)CC4)cc3)nc2n1-c1cccc(C(C)(C)O)n1 [MK1775] as the molecule, how does the “Z' of S-phase gammaH2AX difference (Z-score)” value read?
Answer: Its value is inactive: 0.106.

Question: How did the “Z' of S-phase gammaH2AX difference (Z-score)” value turn out when `Cc1nc(Nc2ncc(C(=O)Nc3c(C)cccc3Cl)s2)cc(N2CCN(CCO)CC2)n1` + C=CCn1c(=O)c2cnc(Nc3ccc(N4CCN(C)CC4)cc3)nc2n1-c1cccc(C(C)(C)O)n1 [MK1775] was run?
Answer: The value was active: 7.22.

Question: `CCN1CCN(Cc2ccc(-c3cc4c(N[C@H](C)c5ccccc5)ncnc4[nH]3)cc2)CC1` + C=CCn1c(=O)c2cnc(Nc3ccc(N4CCN(C)CC4)cc3)nc2n1-c1cccc(C(C)(C)O)n1 [MK1775] was tested. Which “Z' of S-phase gammaH2AX difference (Z-score)” value did it give?
Answer: Its value is inactive: 0.0525.

Question: With `CC(C)c1ccc2c(c1)c(SC(C)(C)C)c(CC(C)(C)C(=O)O)n2Cc1ccc(Cl)cc1` + C=CCn1c(=O)c2cnc(Nc3ccc(N4CCN(C)CC4)cc3)nc2n1-c1cccc(C(C)(C)O)n1 [MK1775] as the molecule, how does the “Z' of S-phase gammaH2AX difference (Z-score)” value read?
Answer: The value was inactive: 0.902.

Question: Which “Z' of S-phase gammaH2AX difference (Z-score)” value does the source give for `C=C1/C(=C\C=C2/CCC[C@]3(C)[C@@H]([C@H](C)/C=C/[C@H](C)C(C)C)CC[C@@H]23)C[C@@H](O)C[C@@H]1O` [Doxercalciferol (Hectorol)] + C=CCn1c(=O)c2cnc(Nc3ccc(N4CCN(C)CC4)cc3)nc2n1-c1cccc(C(C)(C)O)n1 [MK1775] here?
Answer: Its value is inactive: 0.385.

Question: For `CC(C)(C)c1ccc(C(O)CCCN2CCC(C(O)(c3ccccc3)c3ccccc3)CC2)cc1` (stereo not given) [Terfenadine] + C=CCn1c(=O)c2cnc(Nc3ccc(N4CCN(C)CC4)cc3)nc2n1-c1cccc(C(C)(C)O)n1 [MK1775], which “Z' of S-phase gammaH2AX difference (Z-score)” value is on record?
Answer: The value was inactive: -0.893.

Question: `N[C@@H](Cc1ccc(O)c(I)c1)C(=O)O` [3-Iodo-L-tyrosine] + C=CCn1c(=O)c2cnc(Nc3ccc(N4CCN(C)CC4)cc3)nc2n1-c1cccc(C(C)(C)O)n1 [MK1775] was tested. Which “Z' of S-phase gammaH2AX difference (Z-score)” value did it give?
Answer: The value was inactive: -0.0802.

Question: For `Nc1ccn([C@@H]2O[C@H](CO)[C@@H](O)[C@@H]2O)c(=O)n1` [Cytarabine] + C=CCn1c(=O)c2cnc(Nc3ccc(N4CCN(C)CC4)cc3)nc2n1-c1cccc(C(C)(C)O)n1 [MK1775], which “Z' of S-phase gammaH2AX difference (Z-score)” value is on record?
Answer: The value was inactive: -2.3.

Question: Which “Z' of S-phase gammaH2AX difference (Z-score)” value does the source give for `Nc1ccn([C@@H]2O[C@H](CO)[C@@H](O)[C@@H]2O)c(=O)n1` [Cytosine-1-beta-D-arabinofuranoside hydrochloride] + C=CCn1c(=O)c2cnc(Nc3ccc(N4CCN(C)CC4)cc3)nc2n1-c1cccc(C(C)(C)O)n1 [MK1775] here?
Answer: The value was inactive: 1.99.

Question: For `Nc1ncnc2c1ncn2C1CCCO1` (stereo not given) + C=CCn1c(=O)c2cnc(Nc3ccc(N4CCN(C)CC4)cc3)nc2n1-c1cccc(C(C)(C)O)n1 [MK1775], which “Z' of S-phase gammaH2AX difference (Z-score)” value is on record?
Answer: The value was inactive: -1.57.

Question: For `Cc1[nH]c2ccccc2c1CCNCc1ccc(/C=C/C(=O)NO)cc1` [Panobinostat] + C=CCn1c(=O)c2cnc(Nc3ccc(N4CCN(C)CC4)cc3)nc2n1-c1cccc(C(C)(C)O)n1 [MK1775], which “Z' of S-phase gammaH2AX difference (Z-score)” value is on record?
Answer: Its value is inactive: -4.58.

Question: For `CC(C)Cn1c(=O)n(C)c(=O)c2[nH]cnc21` [3-Isobutyl-1-methylxanthine] + C=CCn1c(=O)c2cnc(Nc3ccc(N4CCN(C)CC4)cc3)nc2n1-c1cccc(C(C)(C)O)n1 [MK1775], which “Z' of S-phase gammaH2AX difference (Z-score)” value is on record?
Answer: Its value is inactive: -0.27.

Question: For `CCCCOc1cc(CC2CNC(=O)N2)ccc1OC` (stereo not given) + C=CCn1c(=O)c2cnc(Nc3ccc(N4CCN(C)CC4)cc3)nc2n1-c1cccc(C(C)(C)O)n1 [MK1775], which “Z' of S-phase gammaH2AX difference (Z-score)” value is on record?
Answer: The value was inactive: -0.0134.

Question: For `Nc1ccc(C(=O)Nc2cccc(-c3nc(N4CCOCC4)c4oc5ncccc5c4n3)c2)cn1` + C=CCn1c(=O)c2cnc(Nc3ccc(N4CCN(C)CC4)cc3)nc2n1-c1cccc(C(C)(C)O)n1 [MK1775], which “Z' of S-phase gammaH2AX difference (Z-score)” value is on record?
Answer: The value was inactive: -0.431.

Question: With `CN(C)CCCN1c2ccccc2Sc2ccc(Cl)cc21` [Chlorpromazine hydrochloride] + C=CCn1c(=O)c2cnc(Nc3ccc(N4CCN(C)CC4)cc3)nc2n1-c1cccc(C(C)(C)O)n1 [MK1775] as the molecule, how does the “Z' of S-phase gammaH2AX difference (Z-score)” value read?
Answer: The value was inactive: 0.685.

Question: `CC(Cc1ccc(O)c(O)c1)(NN)C(=O)O` (stereo not drawn) [S-(-)-Carbidopa] + C=CCn1c(=O)c2cnc(Nc3ccc(N4CCN(C)CC4)cc3)nc2n1-c1cccc(C(C)(C)O)n1 [MK1775] was tested. Which “Z' of S-phase gammaH2AX difference (Z-score)” value did it give?
Answer: The value was inactive: 0.144.

Question: For `CN(C)c1ccc(O)c2c1C[C@H]1C[C@H]3[C@H](N(C)C)C(O)=C(C(N)=O)C(=O)[C@@]3(O)C(O)=C1C2=O` [Minocycline hydrochloride] + C=CCn1c(=O)c2cnc(Nc3ccc(N4CCN(C)CC4)cc3)nc2n1-c1cccc(C(C)(C)O)n1 [MK1775], which “Z' of S-phase gammaH2AX difference (Z-score)” value is on record?
Answer: Its value is inactive: -0.0873.

Question: How did the “Z' of S-phase gammaH2AX difference (Z-score)” value turn out when `CCN1CCc2nc(N)oc2CC1` [B-HT 933 dihydrochloride] + C=CCn1c(=O)c2cnc(Nc3ccc(N4CCN(C)CC4)cc3)nc2n1-c1cccc(C(C)(C)O)n1 [MK1775] was run?
Answer: The value was inactive: 0.458.

Question: With `C[N+](C)(C)CCOC(=O)CCC(=O)OCC[N+](C)(C)C` [Succinylcholine chloride] + C=CCn1c(=O)c2cnc(Nc3ccc(N4CCN(C)CC4)cc3)nc2n1-c1cccc(C(C)(C)O)n1 [MK1775] as the molecule, how does the “Z' of S-phase gammaH2AX difference (Z-score)” value read?
Answer: Its value is inactive: -0.103.

Question: For `CN(Cc1cnc2nc(N)nc(N)c2n1)c1ccc(C(=O)N[C@@H](CCC(=O)O)C(=O)O)cc1` [Methotrexate] + C=CCn1c(=O)c2cnc(Nc3ccc(N4CCN(C)CC4)cc3)nc2n1-c1cccc(C(C)(C)O)n1 [MK1775], which “Z' of S-phase gammaH2AX difference (Z-score)” value is on record?
Answer: Its value is active: 5.98.

Question: Which “Z' of S-phase gammaH2AX difference (Z-score)” value does the source give for `CN(Cc1cnc2nc(N)nc(N)c2n1)c1ccc(C(=O)N[C@@H](CCC(=O)O)C(=O)O)cc1` [(-)Amethopterin] + C=CCn1c(=O)c2cnc(Nc3ccc(N4CCN(C)CC4)cc3)nc2n1-c1cccc(C(C)(C)O)n1 [MK1775] here?
Answer: Its value is active: 3.07.

Question: Which “Z' of S-phase gammaH2AX difference (Z-score)” value does the source give for `CN(Cc1cnc2nc(N)nc(N)c2n1)c1ccc(C(=O)N[C@@H](CCC(=O)O)C(=O)O)cc1` [Abitrexate (Methotrexate)] + C=CCn1c(=O)c2cnc(Nc3ccc(N4CCN(C)CC4)cc3)nc2n1-c1cccc(C(C)(C)O)n1 [MK1775] here?
Answer: Its value is inactive: 1.99.

Question: `C=CCn1c(=O)c2c(nc(-c3ccc(S(=O)(=O)O)cc3)n2C)n(C)c1=O` [1-Allyl-3,7-dimethyl-8-p-sulfophenylxanthine] + C=CCn1c(=O)c2cnc(Nc3ccc(N4CCN(C)CC4)cc3)nc2n1-c1cccc(C(C)(C)O)n1 [MK1775] was tested. Which “Z' of S-phase gammaH2AX difference (Z-score)” value did it give?
Answer: Its value is inactive: 0.0935.

Question: How did the “Z' of S-phase gammaH2AX difference (Z-score)” value turn out when `COc1cc2c(CCNC(C)=O)c[nH]c2cc1Cl` [6-Chloromelatonin] + C=CCn1c(=O)c2cnc(Nc3ccc(N4CCN(C)CC4)cc3)nc2n1-c1cccc(C(C)(C)O)n1 [MK1775] was run?
Answer: Its value is inactive: 0.264.

Question: Which “Z' of S-phase gammaH2AX difference (Z-score)” value does the source give for `Cc1ccc(S(=O)(=O)NC(=O)NN2CCCCCC2)cc1` [Tolazamide] + C=CCn1c(=O)c2cnc(Nc3ccc(N4CCN(C)CC4)cc3)nc2n1-c1cccc(C(C)(C)O)n1 [MK1775] here?
Answer: The value was inactive: -1.81.

Question: `CC(C)c1ccc(Cn2ccc3c4c(N)nc(NC5CC5)nc4ccc32)cc1` + C=CCn1c(=O)c2cnc(Nc3ccc(N4CCN(C)CC4)cc3)nc2n1-c1cccc(C(C)(C)O)n1 [MK1775] was tested. Which “Z' of S-phase gammaH2AX difference (Z-score)” value did it give?
Answer: Its value is inactive: -0.805.

Question: For `CCCCNc1c(C(=O)OCC)c(C)nc2c1cnn2CC` [Tracazolate] + C=CCn1c(=O)c2cnc(Nc3ccc(N4CCN(C)CC4)cc3)nc2n1-c1cccc(C(C)(C)O)n1 [MK1775], which “Z' of S-phase gammaH2AX difference (Z-score)” value is on record?
Answer: Its value is inactive: 0.185.

Question: `CCCCCCCc1ccc(CCc2cccc(O)c2C(=O)O)cc1` + C=CCn1c(=O)c2cnc(Nc3ccc(N4CCN(C)CC4)cc3)nc2n1-c1cccc(C(C)(C)O)n1 [MK1775] was tested. Which “Z' of S-phase gammaH2AX difference (Z-score)” value did it give?
Answer: Its value is inactive: 0.301.

Question: `CC(N)=NCCC[C@H](N)C(=O)O` [L-N5-(1-Iminoethyl)ornithine hydrochloride] + C=CCn1c(=O)c2cnc(Nc3ccc(N4CCN(C)CC4)cc3)nc2n1-c1cccc(C(C)(C)O)n1 [MK1775] was tested. Which “Z' of S-phase gammaH2AX difference (Z-score)” value did it give?
Answer: Its value is inactive: -0.668.

Question: Which “Z' of S-phase gammaH2AX difference (Z-score)” value does the source give for `CC[N+](CC)(CC)CC(=O)Nc1c(C)cccc1C` [Lidocaine N-ethyl bromide quaternary salt] + C=CCn1c(=O)c2cnc(Nc3ccc(N4CCN(C)CC4)cc3)nc2n1-c1cccc(C(C)(C)O)n1 [MK1775] here?
Answer: The value was inactive: 0.296.

Question: For `COc1cc(-c2ccc(=O)[nH]n2)ccc1OC(F)F` [Zardaverine] + C=CCn1c(=O)c2cnc(Nc3ccc(N4CCN(C)CC4)cc3)nc2n1-c1cccc(C(C)(C)O)n1 [MK1775], which “Z' of S-phase gammaH2AX difference (Z-score)” value is on record?
Answer: The value was inactive: -0.00186.

Question: `Cc1ccc([N+](=O)[O-])cc1S(=O)(=O)N(C)/N=C/c1cnc2ccc(Br)cn12` + C=CCn1c(=O)c2cnc(Nc3ccc(N4CCN(C)CC4)cc3)nc2n1-c1cccc(C(C)(C)O)n1 [MK1775] was tested. Which “Z' of S-phase gammaH2AX difference (Z-score)” value did it give?
Answer: The value was inactive: -1.25.

Question: With `O=C(Nc1cc(C(=O)Nc2ccc(S(=O)(=O)O)cc2S(=O)(=O)O)cc(C(=O)Nc2ccc(S(=O)(=O)O)cc2S(=O)(=O)O)c1)Nc1cc(C(=O)Nc2ccc(S(=O)(=O)O)cc2S(=O)(=O)O)cc(C(=O)Nc2ccc(S(=O)(=O)O)cc2S(=O)(=O)O)c1` [NF449 octasodium salt] + C=CCn1c(=O)c2cnc(Nc3ccc(N4CCN(C)CC4)cc3)nc2n1-c1cccc(C(C)(C)O)n1 [MK1775] as the molecule, how does the “Z' of S-phase gammaH2AX difference (Z-score)” value read?
Answer: Its value is inactive: 0.378.

Question: How did the “Z' of S-phase gammaH2AX difference (Z-score)” value turn out when `CC1=C(/C=C/C(C)=C/C=C/C(C)=C\C(=O)O)C(C)(C)CCC1` [13-cis-retinoic acid] + C=CCn1c(=O)c2cnc(Nc3ccc(N4CCN(C)CC4)cc3)nc2n1-c1cccc(C(C)(C)O)n1 [MK1775] was run?
Answer: The value was inactive: 0.383.
